Source: PubChem BioAssay AID1508600 (Functional Genomics Laboratory (NCATS/FGL), 2020)
The whole screen tested about 53,000 sequences, of which about 3,700 (7%) were called active.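 How the source made its calls: active means gene knockdowns whose robust z-score for IL-1 alpha signal is at least 2 or at most -2, so actives lie on both sides; inactive means the rest.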 Some of the results follow.

experiment: Components of the Cytosolic LPS Sensing Pathway: Gene Identification via Genome-wide siRNA Screen; settings: RAW264.7 macrophages, IL-1a HTRF, actives lie on both sides, screened at 100 nM (by protocol), cells primed 5 h with Pam3CSK4 first;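 further: robust z of the log signal after scaling to non-targeting control siRNA wells of the plate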
Summary of the method: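 Supernatant IL-1a by HTRF from RAW264.7 cells primed with Pam3CSK4 (5 hours) and transfected with LipidA (24 hour) after 48h siRNA knockdown at 100 nM; cell viability checked with CellTiter-Glo.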

Row | Sequence | z-score
1 | GGAUGACUGGAACUUCCUCTT against Kcnk1 | inactive: -1.26
2 | CCUCAUCGAAUUCGAUACCTT against Arrb2 | inactive: -0.181
3 | GCCAUCGUGAGAAGACUUCTT against Nt5c3 | inactive: -0.227
4 | CUACCUACUCCAUGUGGUGTT against Gpihbp1 | inactive: -0.55
5 | GGCUCUAUAUCUAUACUGATT against Srst | inactive: -1
6 | GGAUAUCCUUACAAGGACCTT against Tmco3 | inactive: -0.646
7 | GCCCAUGACAUUCUCCAUUTT against Cdh17 | inactive: 0.824
8 | GGACCUAGAGGACUAUAAATT against P3h2 | inactive: 0.894
9 | GGAACAGCUCAACACAAGATT against Adam11 | inactive: 1.81
10 | GGCUUUGAGUAUCAAAAUATT against Pfpl | inactive: -0.58
11 | GGACCCUCCAGGUUACAUUTT against Ptpn18 | inactive: 0.529
12 | CCAAUACUACAUAAUGUCUTT against Abcc12 | inactive: -0.354
13 | CGUGUUCCGGUCGAGUACUTT against Wdr54 | inactive: -0.314
14 | GGCGGUCUUUAAGAUGCUCTT against Ubl7 | active: 2.12
15 | GGAGGGUACUGUUAUUUUUTT against Defb9 | inactive: 1
16 | GGCCAAGAUAGAUAAUAACTT against Zcchc7 | inactive: -1.08
17 | CCAACUGGUAAUCUUCACATT against Olfr3 | inactive: -0.717
18 | GAGGCUGUCUGCUUCAUCCTT against Mrps12 | inactive: 0.701
19 | GCUUAUGUUGUUGUGCAUUTT against Zfyve21 | inactive: 0.362
20 | CCCGAACCUUAGUAAAUGUTT against Psmd8 | inactive: 0.308
21 | GCAGACUUUGUUUGACAACTT against Hip1 | inactive: 1.43
22 | GCGGACACAUCGAGUUUUGTT against Epor | inactive: 1.57
23 | GCAGCGUAAACAUUGUAACTT against Pkib | inactive: -0.0994

Rewritten in markdown: entries from further up

| Row | Sequence | z-score |
| --- | --- | --- |
| 7 | GCCCAUGACAUUCUCCAUUTT against Cdh17 | inactive: 0.824 |
| 8 | GGACCUAGAGGACUAUAAATT against P3h2 | inactive: 0.894 |
| 9 | GGAACAGCUCAACACAAGATT against Adam11 | inactive: 1.81 |
| 10 | GGCUUUGAGUAUCAAAAUATT against Pfpl | inactive: -0.58 |
| 11 | GGACCCUCCAGGUUACAUUTT against Ptpn18 | inactive: 0.529 |
| 12 | CCAAUACUACAUAAUGUCUTT against Abcc12 | inactive: -0.354 |
| 13 | CGUGUUCCGGUCGAGUACUTT against Wdr54 | inactive: -0.314 |
| 14 | GGCGGUCUUUAAGAUGCUCTT against Ubl7 | active: 2.12 |
| 15 | GGAGGGUACUGUUAUUUUUTT against Defb9 | inactive: 1 |
| 16 | GGCCAAGAUAGAUAAUAACTT against Zcchc7 | inactive: -1.08 |
| 17 | CCAACUGGUAAUCUUCACATT against Olfr3 | inactive: -0.717 |
| 18 | GAGGCUGUCUGCUUCAUCCTT against Mrps12 | inactive: 0.701 |
| 19 | GCUUAUGUUGUUGUGCAUUTT against Zfyve21 | inactive: 0.362 |
| 20 | CCCGAACCUUAGUAAAUGUTT against Psmd8 | inactive: 0.308 |
| 21 | GCAGACUUUGUUUGACAACTT against Hip1 | inactive: 1.43 |
| 22 | GCGGACACAUCGAGUUUUGTT against Epor | inactive: 1.57 |

(continued)

Row | Sequence | z-score
24 | CCUGCUCAGAUCCACAGAATT against Usp17lc | inactive: -1.98
25 | GGUACCAUUCAGCAAUAAGTT against Muc19 | inactive: -0.202
26 | GGUCAACCACAGCUACUGCTT against Pias4 | inactive: 0.913
27 | GGAUAUCGGGAUGAAAUUGTT against Meig1 | inactive: -0.482
28 | GGACCUCAUUGUUUAGUCATT against Cmya5 | inactive: -0.271
29 | GAUGUGUGCUCAUGGUUUUTT against Olfr622 | inactive: -0.711
30 | GGUCUCCAUGAGUUUGAUUTT against Pik3cd | inactive: -0.0808
31 | GCAAUCAUUAAGCAGAUCATT against Prkce | inactive: -1.35
32 | GGGCUUAAGGGUUUCUGUUTT against H3c8 | inactive: 0.864
33 | GAUCUUACUCAGCAGACCUTT against Ifna2 | inactive: 0.0264
34 | GGCAACAGUUGGCUAUCUUTT against Entpd7 | inactive: -0.0483
35 | GGAGCAUGAGGAUUACUGUTT against Trafd1 | inactive: 0.731
36 | GCAGUUUGUUCAAAGUAGCTT against Pcdh17 | inactive: -0.339
37 | GGACUUCUCCAAUGACCUGTT against Creb3l1 | inactive: 0.638
38 | CCAGUGUGAAAUGAUCCUUTT against Hddc2 | inactive: -0.361
39 | GCAGGGAGACUCACAUUAATT against Trpa1 | inactive: 0.931
40 | GGUGAAGAUUGAGAAGGAGTT against Aifm3 | active: -2.05
41 | CGACAUCAAAUACGGAUCUTT against Sdf2l1 | inactive: 0.919
42 | CCAUCCGUAACAUCGACUGTT against Mboat7 | inactive: -0.293
43 | GCAGUAGAUCCUGAUUUUGTT against Cdh12 | inactive: -0.382
44 | GGAAAGGGACCAAUUCAGATT against Fv1 | inactive: -0.27
45 | CCCUGUACACACCUAAAAATT against Nus1 | inactive: -0.688
46 | GGUUUUAGUAUGUAGUGUUTT against Pxt1 | inactive: -0.164

Row | Sequence | z-score
47 | CCUAUGAAGCAAUUUGAUCTT against Lnx2 | inactive: 1.04
48 | GCAUGAGACUAUGCACCUATT against Snca | inactive: -0.448
49 | GGAUCAUCACUACUACAAUTT against 4932415M13Rik | active: 2.37
50 | CCAGCUUAAUGAGUUCAUGTT against Abca7 | inactive: 1.94
51 | GGAAACUGUAAGUGUCAAUTT against Pef1 | inactive: -1.26
52 | GGAACCUUUUAUUCAAGAATT against Cmtm3 | inactive: 0.222
53 | GGAAGAUGGGAAGAAAUUCTT against Eif3g | inactive: 0.108
54 | GGCAGUUCAAAAGACCACATT against Zcchc7 | active: 2.38
55 | CCUUUUUGGUACGAGACGCTT against Pik3r1 | inactive: -1.2
56 | GCACUUUUAAAUUAAGGUCTT against Casp12 | inactive: 0.0894
57 | CCGAAUUCGUGUGAAACUGTT against Ablim2 | inactive: -0.433
58 | GGACAAGGAACAGAGCCUUTT against Rnf183 | inactive: -1.27
59 | GGAUGUGGUCUGAAUUACCTT against Prkd1 | inactive: 0.00495
60 | GGUGUUACCCUCCUUAGAGTT against Tmem230 | inactive: -1.03
61 | GGAUUAAUUAAUACUUGGCTT against Rps9 | inactive: 0.986
62 | CGUGCUUACAUAAUGGAAATT against Rnaseh1 | inactive: 0.231
63 | GGAUCAGAAUUCUUCCCAGTT against Pnrc2 | inactive: -0.805
64 | GGACAACACAUUUGUGCUCTT against Sh2b2 | inactive: 0.209
65 | GGAGCUUUCAGCCUAAUUUTT against Cavin3 | inactive: -0.634
66 | GCCUUUGCGCAUAUGCUCUTT against Fancb | inactive: 1.28
67 | GGUAAAUUCUUUAAGGGACTT against Asah1 | inactive: -0.0704
68 | GGAAAACGAAAGAAACGAUTT against Rab15 | inactive: 0.307
69 | GGAAAAGAUUGUCUUGUCCTT against Ralyl | inactive: -0.101
